The whole screen tested about 1,900 compounds, of which about 250 (13%) were called active. Inconclusive means that the source gave no clear call. Such entries were picked first, then a sample of the others.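 The calls were made as follows: active = fitted curve reaches 40% rescue activity at or below the top valid dose, in every test run; inconclusive = test runs disagree, some active and some inactive; inactive = every run misses the threshold or moves the wrong way.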
Assay: rescue of simvastatin-induced ATP loss – cell-based, C2C12 myotubes, ATP luminescence, cherry pick, dose response (AID 624405);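 also: myotubes are challenged with simvastatin at 10 µM to lower ATP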
Details: 48 h, scaled: DMSO wells 0, geranylgeraniol wells 100; at 19.5 µM (top of the series) unless noted

| SMILES | rescue activity (ATP increase) |
| --- | --- |
| CC(=O)Nc1ccc(S(=O)(=O)NNC(=O)c2cc3c4ccccc4n(C)c3s2)cc1 | inconclusive: 52.4% |
| CCCSc1nnc(CN2CCOCC2)n1C | inactive: -4.41% |
| CCOc1cc(C(=O)Nc2cc(C)ccc2OC)ccc1OCC(=O)N1CCCCC1 | inconclusive: 43.3% |
| O=C1C(C=NCCCN2CCOCC2)=C(O)c2ccccc21 | inconclusive: 40.4% |
| O=C(COC(=O)c1cccs1)NCc1ccco1 | inconclusive: 21.6% |
| Cc1ccc(N2N=C(C(=O)O)CCC2=O)cc1Cl | inactive: 16.1% |
| C[C@H]1CN([C@@H](C)CO)C(=O)c2cccc(N(C)C)c2O[C@@H]1CN(C)Cc1ccc(Cl)c(Cl)c1 | inconclusive: 39.1% |
| C[C@H](CO)N1C[C@H](C)[C@@H](CN(C)Cc2ccc(C(F)(F)F)cc2)Oc2ccc(NC(=O)Cc3cn(C)c4ccccc34)cc2CC1=O | inconclusive: 47.5% |
| Cc1nn(CC(=O)NCCc2ccccc2)c(=O)c2ccccc12 | inconclusive: 56.7% |
| Cc1ccc(NC(=O)C2(c3ccccc3)CC2(Cl)Cl)cc1C (configuration not stated) | inconclusive: 45.3% |
| C[C@H]1CN([C@@H](C)CO)C(=O)c2cc(NS(=O)(=O)c3ccc(F)cc3)ccc2O[C@@H]1CN(C)S(=O)(=O)c1cccs1 | inconclusive: 34.2% |
| C[C@@H]1CN([C@@H](C)CO)C(=O)c2cccc(NS(=O)(=O)c3cccs3)c2O[C@@H]1CN(C)S(=O)(=O)c1ccccc1 | inconclusive: 44.2% [at 21 µM] |
| Cc1ccc(C)c(OCC(O)CN2CCC(C)CC2)c1C (configuration not stated) | inconclusive: 25.3% |
| CNC[C@@H]1Oc2ccc(NC(=O)Nc3ccc(C(F)(F)F)cc3)cc2CC(=O)N([C@@H](C)CO)C[C@@H]1C | inactive: -3.3% |
| Cc1csc2nc(CNC(=O)c3cccc(C(F)(F)F)c3)cn12 | inactive: 0.276% |
| CCCSC1=C(C#N)C(c2ccccc2C)CC(=O)N1 (configuration not stated) | inconclusive: 61.4% |
| C[C@@H]1CN([C@H](C)CO)C(=O)c2cccc(NS(=O)(=O)c3cccs3)c2O[C@@H]1CN(C)Cc1ccc(-c2ccccc2)cc1 | inconclusive: 30.9% |
| Cc1ccc(C(=O)NC(=S)Nc2ccccc2C(F)(F)F)cc1C | inconclusive: -14.7% |
| Cc1noc(C)c1NC(=O)Nc1cccc2c1O[C@H](CN(C)Cc1ccc(-c3ccccc3)cc1)[C@@H](C)CN([C@@H](C)CO)C2=O | inactive: -5.23% |
| COCc1cc(=O)[nH]c(SCC(=O)Nc2ccccc2)n1 | inconclusive: 54.8% |
| COC(=O)c1cc(Br)c(=O)n(CCN2CCOCC2)c1 | inconclusive: 22% |

Reformatted as tab-separated lines: 8 of the compounds above
SMILES	rescue activity (ATP increase)
O=C1C(C=NCCCN2CCOCC2)=C(O)c2ccccc21	inconclusive: 40.4%
O=C(COC(=O)c1cccs1)NCc1ccco1	inconclusive: 21.6%
C[C@H]1CN([C@@H](C)CO)C(=O)c2cccc(N(C)C)c2O[C@@H]1CN(C)Cc1ccc(Cl)c(Cl)c1	inconclusive: 39.1%
Cc1nn(CC(=O)NCCc2ccccc2)c(=O)c2ccccc12	inconclusive: 56.7%
Cc1ccc(NC(=O)C2(c3ccccc3)CC2(Cl)Cl)cc1C (configuration not stated)	inconclusive: 45.3%
C[C@@H]1CN([C@H](C)CO)C(=O)c2cccc(NS(=O)(=O)c3cccs3)c2O[C@@H]1CN(C)Cc1ccc(-c2ccccc2)cc1	inconclusive: 30.9%
Cc1ccc(C(=O)NC(=S)Nc2ccccc2C(F)(F)F)cc1C	inconclusive: -14.7%
Cc1noc(C)c1NC(=O)Nc1cccc2c1O[C@H](CN(C)Cc1ccc(-c3ccccc3)cc1)[C@@H](C)CN([C@@H](C)CO)C2=O	inactive: -5.23%

The list continues.

| SMILES | rescue activity (ATP increase) |
| --- | --- |
| O=C1NC[C@H](CC2CCCCC2)N(CC2CCCCC2)C1=O | inconclusive: 18.7% |
| Nc1ccc2c(S(=O)(=O)O)cccc2c1S(=O)(=O)O | inactive: 2.73% |
| C[C@@H]1CN([C@@H](C)CO)C(=O)c2cc(NC(=O)c3ccncc3)ccc2O[C@@H](C)CCCCO[C@H]1CN(C)Cc1ccc(C(F)(F)F)cc1 | inconclusive: 31.4% [at 21 µM] |
| CCSc1nnc(-c2cccnc2)n1-c1ccc(Cl)c(C)c1 | inconclusive: 56.6% |
| CCCNC(=O)c1ccccc1NC(=O)c1ccccc1N(C)S(C)(=O)=O | inconclusive: 13.2% |
| CNC[C@@H]1Oc2c(NC(=O)Nc3c(C)noc3C)cccc2C(=O)N([C@H](C)CO)C[C@@H]1C | inconclusive: 43.4% |
| COc1cccc(-c2cnc3c(c2)C(=O)N([C@H](C)CO)C[C@H](C)[C@H](CN(C)S(=O)(=O)c2cccs2)O3)c1 | inactive: -17.5% |
| c1ccc2c(c1)CCN(Cc1nnnn1Cc1ccc3c(c1)OCO3)C2 | inactive: -2.57% |
| Cc1cc(N2CCCC2)nc(-c2ccccc2O)n1 | inconclusive: 7.16% |
| COc1ccc(S(=O)(=O)Nc2ccc3c(c2)C(=O)N([C@@H](C)CO)C[C@H](C)[C@H](CN(C)C(=O)Nc2cccc4ccccc24)OCCCC[C@H](C)O3)cc1 | inconclusive: 39.8% |
| COc1ccc(CC(=O)NC(CC(=O)O)c2cccc([N+](=O)[O-])c2)cc1 (configuration not stated) | inactive: 36.5% |
| C[C@H](CO)N1C[C@H](C)[C@H](CN(C)Cc2ccc3c(c2)OCO3)Oc2ccc(NS(=O)(=O)c3ccc(F)cc3)cc2CC1=O | inconclusive: 27.3% |
| CC(C)CC#Cc1cnc2c(c1)C(=O)N([C@@H](C)CO)C[C@@H](C)[C@H](CN(C)C(=O)c1ccc3c(c1)OCO3)O2 | inconclusive: 44.8% |
| Cc1cc(C)c(C#N)c(N2CCCC(C(N)=O)C2)n1 (configuration not stated) | inconclusive: 52.6% |
| C[C@@H]1CN([C@@H](C)CO)C(=O)c2cc(C#Cc3ccccc3F)cnc2O[C@H]1CN(C)S(=O)(=O)c1ccccc1F | inactive: 23.5% |
| C[C@H](CO)N1C[C@H](C)[C@H](CN(C)C(=O)Nc2cccc3ccccc23)OCCCC[C@H](C)Oc2ccc(NS(=O)(=O)c3ccc(Cl)cc3)cc2C1=O | inactive: 16.9% |
| CC(C)NC(=O)Nc1ccc2c(c1)C(=O)N([C@H](C)CO)C[C@@H](C)[C@H](CN(C)C(=O)C1CCCCC1)OCCCC[C@@H](C)O2 | inactive: 2.97% |
| C[C@H](CO)N1C[C@H](C)[C@H](CN(C)S(=O)(=O)c2ccc(C#N)cc2)Oc2ncc(-c3cc4ccccc4o3)cc2C1=O | inconclusive: 43.6% [at 21 µM] |
| C[C@H]1CN([C@@H](C)CO)C(=O)Cc2cc(NS(=O)(=O)c3ccccc3)ccc2O[C@@H]1CN(C)Cc1ccc(Cl)c(Cl)c1 | inconclusive: 59% |
| Cc1ccc(-c2csc(NC(=O)c3cccs3)n2)cc1 | inconclusive: 57.1% |
| C[C@@H]1CCCCO[C@@H](CN(C)C(=O)C2CCCCC2)[C@H](C)CN([C@@H](C)CO)C(=O)c2cc(NS(=O)(=O)c3ccccc3)ccc2O1 | inactive: 32.1% |
